PubChem BioAssay AID1508597 | Cure First | 2020
Test: 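Knock-downs altering ovarian cancer cell survival with or without PARP inhibitor rucaparib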 (primary screen). System: human ovarian carcinoma lines grown from tumours: OCI-P5x (papillary serous) and OCI-C5x (clear cell). Reagents: siRNA pool against human genes, 1.25 pmol siRNA per well. Time to read-out: 72 h or 96 h, depending on the cell culture. Challenge: rucaparib 20 µM (about IC30) or vehicle, present until read-out. Rucaparib or vehicle: Rucaparib. Cell line: OCI-C5x (clear cell). Measured: 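ATP luminescence measured at 72 or 96 h according to the culture, then normalised and expressed as percent viability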. Reading the numbers: viability, normalised: higher = more viable cells remaining. Call rule: 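a well counts as a hit if its normalised viability is under 80 percent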. Meaning of the calls: active = viability under 80%; inactive = viability 80% or more.
This is a random part of the about 2,100 reagents, under one of the conditions tested. 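Calls flag viability under 80% in either arm, not effects specific to rucaparib; the reference for percent is not stated.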 A reagent listed more than once was tested more than once; the source does not tell the runs apart. Not stated in the record: the 100% reference.

no.	gene	technical replicate	viability, normalised (%)	activity call
1	PLCG2	1	68.3	active
2	PLCG2	2	68.2	active
3	PLCG2	3	47.7	active
4	TGM3	1	55.8	active
5	TGM3	2	39.2	active
6	TGM3	3	47.1	active
7	MYLK	1	73.5	active
8	MYLK	1	41.1	active
9	MYLK	2	79.6	active
10	MYLK	2	57.9	active
11	MYLK	3	78.8	active
12	MYLK	3	80.9	inactive
13	TBL1X	1	52.9	active
14	TBL1X	2	61.3	active
15	TBL1X	3	39.7	active
16	MSH6	1	78.5	active
17	MSH6	1	54.8	active
18	MSH6	2	47	active
19	MSH6	2	73.9	active
20	MSH6	3	42	active
21	MSH6	3	93.5	inactive
22	SLC17A1	1	49.2	active
23	SLC17A1	2	44.8	active
24	SLC17A1	3	23.8	active
25	PLCB2	1	68.2	active
26	PLCB2	2	61.1	active
27	PLCB2	3	61.6	active
28	PALS2	1	36.4	active
29	PALS2	2	40.6	active
30	PALS2	3	44.8	active
31	HJURP	1	78.2	active
32	HJURP	2	42.3	active
33	HJURP	3	51	active
34	TRIB3	1	55	active
35	TRIB3	2	46.6	active
36	TRIB3	3	59.7	active
37	RDM1	1	40.9	active
38	RDM1	2	57.6	active
39	RDM1	3	50.9	active

Laid out differently: entries from further up
| gene | technical replicate | viability, normalised (%) | activity call |
| --- | --- | --- | --- |
| MYLK | 2 | 57.9 | active |
| MYLK | 3 | 78.8 | active |
| MYLK | 3 | 80.9 | inactive |
| TBL1X | 1 | 52.9 | active |
